In PubChem BioAssay AID256 (DTP/NCI, 2004) one finds survivor count and T/C data, which are given here for 13 compounds.

The assay relates to CD2F1 mice, L1210 leukemia ip, survival T/C. Description: NCI In Vivo Anticancer Drug Screen. Data for tumor model L1210 Leukemia (intraperitoneal) in CD2F1 (CDF1) mice. The note with it: higher T/C = longer survival. In a few lines: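 Implant tumor; dose compound or vehicle; measure endpoint in both groups; report treated divided by control.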
[1] abbreviates: T/C endpoint: mean survival time, dose: 400.0 mg/kg/injection, schedule: Q04DX002 (ip), vehicle: saline with Tween-80.
Setting [2] is: T/C endpoint: mean survival time, dose: 200.0 mg/kg/injection, schedule: Q01DX005 (ip), vehicle: other.
Setting [3] is: T/C endpoint: mean survival time, dose: 400.0 mg/kg/injection, schedule: Q01DX009 (ip), vehicle: saline with Tween-80.

The list does not hold the whole screen: it gathers tests that were run many times, whatever their T/C, doses with no T/C, and many T/C values between a quarter and a half above the control. Other doses and runs of a compound stand elsewhere. T/C gives the treated animals as a percentage of the vehicle group. Some doses have a count of surviving animals in place of a T/C: the source files T/C as zero there, which appears to mark a toxic dose or a test without result, not a measured value. Some survivor counts are full or nearly so, which does not show that the dose was tolerated: the source hardly ever lists a survival T/C far under the control, and the zero likely stands for such cases as well. Counts of survivors are from the toxicity check (mostly the fifth day) where no day follows; animals may have died later. Schedule codes are those of the source, taken here to give the interval after Q, in days (D) or hours (H), and the number of doses after X. Some doses were run more than once; the values are given in rising order. Where survival is the endpoint, the PubChem record calls one and a half times the control and up active, and a quarter to a half above the control has no call in these data; cut-offs in other NCI protocols can differ. Some T/C values are followed by the survivors on the day toxicity was checked, most often the fifth; without a count, all were alive then.

Regarding `CCC(NC(N)=O)C(CC)NC(N)=O` (stereo unspecified), the survivor count is 0 of 6 (T/C endpoint: median survival time, dose: 100.0 mg/kg/injection, schedule: Q01DX009 (ip), vehicle: saline with Tween-80) and 0 of 6 (T/C endpoint: median survival time, dose: 200.0 mg/kg/injection, schedule: Q01DX009 (ip), vehicle: saline with Tween-80).

For the compound `CN(C)N=Nc1ccc(S(N)(=O)=O)cc1C(N)=O`, the T/C by setting is: (T/C endpoint: mean survival time, dose: 75.0 mg/kg/injection, schedule: Q01DX009 (ip), vehicle: Klucel (hydroxypropylcellulose) (HPC)) 135 % of control; (T/C endpoint: mean survival time, dose: 150.0 mg/kg/injection, schedule: Q01DX009 (ip), vehicle: Klucel (hydroxypropylcellulose) (HPC)) 132 and 146 % of control.

Turning to `Cc1c(N)cccc1F`, the survivor count is, setting by setting: (T/C endpoint: mean survival time, dose: 100.0 mg/kg/injection, schedule: Q01DX009 (ip), vehicle: saline sonified) 6 of 6; (T/C endpoint: mean survival time, dose: 200.0 mg/kg/injection, schedule: Q01DX009 (ip), vehicle: saline sonified) 1 of 6; (T/C endpoint: mean survival time, dose: 400.0 mg/kg/injection, schedule: Q04DX003 (ip), vehicle: saline) 1 of 6.

For `CCN(CC)C(=O)Nc1ccc(Cl)cc1`, under setting [1], the survivor count is given as 2 of 3.

With `O=P(N1CCOCC1)(N1CC1)N1CC1`, under “T/C endpoint: mean survival time, dose: 6.25 mg/kg/injection, schedule: Q01DX009 (ip), vehicle: saline”, the T/C was 132 % of control.

As for `NC(=O)c1[nH]cnc1/N=N/N(CCF)CCF`, the T/C is 137 % of control (T/C endpoint: mean survival time, dose: 13.0 mg/kg/injection, schedule: Q01DX001 (ip), vehicle: other) and 140 % of control (T/C endpoint: mean survival time, dose: 20.0 mg/kg/injection, schedule: Q01DX001 (ip), vehicle: other).

For `Cc1ccc(S(=O)(=O)OCC2C3CCC(C3)C2COS(=O)(=O)c2ccc(C)cc2)cc1` (stereo unspecified), the survivor count is recorded as 3 of 3 (T/C endpoint: mean survival time, dose: 200.0 mg/kg/injection, schedule: Q04DX002 (ip), vehicle: saline with Tween-80) and 3 of 3 under setting [1].

`CNC`: the survivor count by setting is: (T/C endpoint: mean survival time, dose: 200.0 mg/kg/injection, schedule: Q04DX002 (ip), vehicle: saline) 3 of 3; (T/C endpoint: mean survival time, dose: 400.0 mg/kg/injection, schedule: Q04DX002 (ip), vehicle: saline) 3 of 3.

`COc1ccc2c(c1)CCc1cnn(C3OC(COC(C)=O)C(OC(C)=O)C(OC(C)=O)C3OC(C)=O)c1-2` (stereo unspecified): the survivor count is 6 of 6 (T/C endpoint: mean survival time, dose: 100.0 mg/kg/injection, schedule: Q01DX005 (ip), vehicle: other) and 5 of 6 under setting [2].

With `C(#[C][Ge]([C]#Cc1ccccc1)([C]#Cc1ccccc1)[C]#Cc1ccccc1)c1ccccc1`, the survivor count is given as 6 of 6 (T/C endpoint: mean survival time, dose: 100.0 mg/kg/injection, schedule: Q01DX009 (ip), vehicle: saline with Tween-80) and 5 of 6 under setting [3].

On to `CCCCCCCCOC(=O)c1cc([N+](=O)[O-])c(Sc2ncnc3nc[nH]c23)c([N+](=O)[O-])c1`, for which the T/C is, setting by setting: (T/C endpoint: mean survival time, dose: 16.5 mg/kg/injection, schedule: Q01DX005 (ip), vehicle: other) 140 % of control; (T/C endpoint: mean survival time, dose: 25.0 mg/kg/injection, schedule: Q01DX005 (ip), vehicle: other) 149 % of control [5 of 6 alive]; (T/C endpoint: mean survival time, dose: 37.5 mg/kg/injection, schedule: Q01DX005 (ip), vehicle: other) 140 % of control. For the same compound, the survivor count under setting [2] is 3 of 3.

Consider `NS(=O)(=O)c1ccc(Cl)c(Cl)c1`, for which the survivor count under setting [3] was 3 of 6.

In the case of `NC(=S)N/N=C/c1cc(-c2cccc(N)c2)ccn1`, where the note is “T/C endpoint: mean survival time, dose: 50.0 mg/kg/injection, schedule: Q01DX009 (ip), vehicle: saline with Tween-80”, the T/C was 126 % of control. Moreover, where the note is “T/C endpoint: mean survival time, dose: 150.0 mg/kg/injection, schedule: Q01DX009 (ip), vehicle: saline with Tween-80”, the survivor count is 0 of 6 and 1 of 6.
